# Measurements taken from patent publication EP4714468A1, “METHOD FOR ADMINISTERING MODULATOR TARGETING S1PR1 AND S1PR4” (priority 2023, dated 2024).
# Key:
# [1] = tested on: absolute lymphocyte count (ALC); experiment: Phase 1 clinical trial, repeated administration: pharmacodynamics by hematological test; format: in vivo, healthy adult males
# Method: (§1) A randomized, double-blind, placebo-controlled, step-escalation, single- and multiple-dose phase 1 clinical trial was conducted to evaluate the safety, tolerability, and pharmacokinetic/pharmacodynamic characteristics of a compound of Chemical Formula 1 (NXC736) after oral administration to healthy adult males.
# The subjects fasted for at least 10 hours before the first administration. Afterwards, the clinical trial drug was administered orally twice a day for 13 days and once on day 14 in a fasting state at around 9:00 AM and 9:00 PM. The administration was performed twice a day for approximately 14 days, and the subjects were discharged on day 21 from the first administration and observed through outpatient visits until day 36. Blood was collected once before administration and at regular intervals after administration, and hematological tests were performed.
# [2] = tested on: absolute lymphocyte count (ALC); experiment: Phase 1 clinical trial, single administration: pharmacodynamics by hematological test; format: in vivo, healthy adult males
# Method: as §1
# The subjects were administered a single oral dose of the clinical trial drug on an empty stomach at around 9:00 AM on the day of administration after fasting for at least 10 hours. In the single-administration trial, the subjects were administered the drug and hospitalized for 8 days. After discharge, they were observed through outpatient visits until day 21. Blood was collected once before administration and at regular intervals after administration, and hematological tests were performed.
smiles,measurement,setting,value
CCCCCCCCCCn1cc(CCC(N)(CO)CO)nn1 [NXC736],time over which ALC steadily decreased after administration,[1]; repeated administration,up to 6 hours
same,time for the decrease in ALC to reach the maximum,[1]; repeated administrations,≤ 14 days
same,time of ALC recovery to the pre-administration level after discontinuation of administration,[1]; repeated administrations,≤ 24 h
same,ALC recovery to the pre-administration level,[2]; after single administration,within the same day
same,time at which ALC decreased to the maximum,[2]; after single administration,about 6 hours
same,time of ALC recovery to the pre-administration level,[2]; after single administration,≤ 1 days
same,time over which ALC steadily decreased after administration,[2]; single administration,up to 6 hours
